Test results from the supplement of paper PMC10849652.
This is one part of the list. Residues, ends and D or L forms follow the SMILES beside them. *: point of attachment. Cbz = O=C(OCc1ccccc1)*

Amino acid sequences for entries named in this document (tags omitted). A change or cut given only in a name is not applied to a line headed by its entry.
UniProt Q92614: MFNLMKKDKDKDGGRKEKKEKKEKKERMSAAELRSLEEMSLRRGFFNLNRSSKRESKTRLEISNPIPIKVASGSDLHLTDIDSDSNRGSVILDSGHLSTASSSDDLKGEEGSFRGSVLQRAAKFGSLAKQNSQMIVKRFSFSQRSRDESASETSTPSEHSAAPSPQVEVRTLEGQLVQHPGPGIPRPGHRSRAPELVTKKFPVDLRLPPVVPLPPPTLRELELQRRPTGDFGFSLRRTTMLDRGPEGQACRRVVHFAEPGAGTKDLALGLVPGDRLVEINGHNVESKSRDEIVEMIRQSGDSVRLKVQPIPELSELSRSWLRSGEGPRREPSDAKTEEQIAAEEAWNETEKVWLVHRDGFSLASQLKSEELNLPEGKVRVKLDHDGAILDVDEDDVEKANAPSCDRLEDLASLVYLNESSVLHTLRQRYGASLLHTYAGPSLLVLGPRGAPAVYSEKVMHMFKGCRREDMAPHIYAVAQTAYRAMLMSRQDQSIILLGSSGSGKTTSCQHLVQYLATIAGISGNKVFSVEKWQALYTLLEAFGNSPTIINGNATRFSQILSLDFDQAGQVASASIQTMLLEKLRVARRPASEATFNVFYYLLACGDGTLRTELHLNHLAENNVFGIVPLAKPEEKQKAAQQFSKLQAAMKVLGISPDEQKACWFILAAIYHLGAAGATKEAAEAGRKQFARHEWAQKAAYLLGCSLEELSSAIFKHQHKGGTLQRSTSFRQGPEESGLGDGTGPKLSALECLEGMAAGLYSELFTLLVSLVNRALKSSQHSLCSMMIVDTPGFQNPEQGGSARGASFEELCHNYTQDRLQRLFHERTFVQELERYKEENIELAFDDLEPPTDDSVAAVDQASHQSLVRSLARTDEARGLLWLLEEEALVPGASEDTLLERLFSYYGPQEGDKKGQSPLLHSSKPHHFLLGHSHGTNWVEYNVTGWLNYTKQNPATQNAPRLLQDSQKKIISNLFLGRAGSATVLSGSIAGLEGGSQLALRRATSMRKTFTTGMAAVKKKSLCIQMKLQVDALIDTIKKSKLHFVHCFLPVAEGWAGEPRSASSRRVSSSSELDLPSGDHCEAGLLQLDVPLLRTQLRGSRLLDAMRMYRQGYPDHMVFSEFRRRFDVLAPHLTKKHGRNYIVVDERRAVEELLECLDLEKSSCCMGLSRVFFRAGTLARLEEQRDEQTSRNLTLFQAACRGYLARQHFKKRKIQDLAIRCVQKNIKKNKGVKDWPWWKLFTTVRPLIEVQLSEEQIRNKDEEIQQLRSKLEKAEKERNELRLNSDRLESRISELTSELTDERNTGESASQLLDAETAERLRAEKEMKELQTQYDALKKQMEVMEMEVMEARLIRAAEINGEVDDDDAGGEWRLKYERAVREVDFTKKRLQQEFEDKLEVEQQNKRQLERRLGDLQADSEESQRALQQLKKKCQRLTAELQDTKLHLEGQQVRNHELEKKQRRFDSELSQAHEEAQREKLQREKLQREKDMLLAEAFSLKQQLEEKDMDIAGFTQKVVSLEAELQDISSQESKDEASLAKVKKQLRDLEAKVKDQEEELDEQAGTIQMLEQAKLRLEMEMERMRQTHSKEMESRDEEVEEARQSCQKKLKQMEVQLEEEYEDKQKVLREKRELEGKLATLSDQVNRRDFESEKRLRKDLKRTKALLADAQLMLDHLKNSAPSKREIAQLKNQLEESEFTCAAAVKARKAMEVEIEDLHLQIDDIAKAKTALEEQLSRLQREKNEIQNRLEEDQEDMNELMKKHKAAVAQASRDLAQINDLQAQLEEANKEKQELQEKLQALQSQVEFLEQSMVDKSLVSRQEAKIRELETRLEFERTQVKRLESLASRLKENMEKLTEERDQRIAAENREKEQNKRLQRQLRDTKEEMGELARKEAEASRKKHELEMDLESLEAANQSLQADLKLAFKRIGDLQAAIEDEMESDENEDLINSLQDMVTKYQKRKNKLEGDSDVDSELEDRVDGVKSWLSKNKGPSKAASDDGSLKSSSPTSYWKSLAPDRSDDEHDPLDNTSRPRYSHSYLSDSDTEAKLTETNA
UniProt Q9BT17: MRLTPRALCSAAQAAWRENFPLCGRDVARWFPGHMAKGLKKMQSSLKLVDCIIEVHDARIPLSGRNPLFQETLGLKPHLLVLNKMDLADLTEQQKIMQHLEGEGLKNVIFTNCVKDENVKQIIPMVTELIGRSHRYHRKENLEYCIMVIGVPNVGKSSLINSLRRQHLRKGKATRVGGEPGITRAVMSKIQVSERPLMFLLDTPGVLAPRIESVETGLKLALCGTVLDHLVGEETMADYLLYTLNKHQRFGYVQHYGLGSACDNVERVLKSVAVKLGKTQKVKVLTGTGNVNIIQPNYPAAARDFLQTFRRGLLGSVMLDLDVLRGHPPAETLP
UniProt O43347: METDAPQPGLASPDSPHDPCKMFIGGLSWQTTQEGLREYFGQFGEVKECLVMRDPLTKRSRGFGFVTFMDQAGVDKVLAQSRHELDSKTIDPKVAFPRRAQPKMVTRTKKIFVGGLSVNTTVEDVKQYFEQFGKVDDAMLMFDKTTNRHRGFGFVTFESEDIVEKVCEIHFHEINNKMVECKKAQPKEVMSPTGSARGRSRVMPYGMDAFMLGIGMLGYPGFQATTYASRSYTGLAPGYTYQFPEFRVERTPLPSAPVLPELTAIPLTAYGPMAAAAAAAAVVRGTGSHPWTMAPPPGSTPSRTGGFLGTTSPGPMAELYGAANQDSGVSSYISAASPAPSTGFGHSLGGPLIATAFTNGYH
UniProt O94832: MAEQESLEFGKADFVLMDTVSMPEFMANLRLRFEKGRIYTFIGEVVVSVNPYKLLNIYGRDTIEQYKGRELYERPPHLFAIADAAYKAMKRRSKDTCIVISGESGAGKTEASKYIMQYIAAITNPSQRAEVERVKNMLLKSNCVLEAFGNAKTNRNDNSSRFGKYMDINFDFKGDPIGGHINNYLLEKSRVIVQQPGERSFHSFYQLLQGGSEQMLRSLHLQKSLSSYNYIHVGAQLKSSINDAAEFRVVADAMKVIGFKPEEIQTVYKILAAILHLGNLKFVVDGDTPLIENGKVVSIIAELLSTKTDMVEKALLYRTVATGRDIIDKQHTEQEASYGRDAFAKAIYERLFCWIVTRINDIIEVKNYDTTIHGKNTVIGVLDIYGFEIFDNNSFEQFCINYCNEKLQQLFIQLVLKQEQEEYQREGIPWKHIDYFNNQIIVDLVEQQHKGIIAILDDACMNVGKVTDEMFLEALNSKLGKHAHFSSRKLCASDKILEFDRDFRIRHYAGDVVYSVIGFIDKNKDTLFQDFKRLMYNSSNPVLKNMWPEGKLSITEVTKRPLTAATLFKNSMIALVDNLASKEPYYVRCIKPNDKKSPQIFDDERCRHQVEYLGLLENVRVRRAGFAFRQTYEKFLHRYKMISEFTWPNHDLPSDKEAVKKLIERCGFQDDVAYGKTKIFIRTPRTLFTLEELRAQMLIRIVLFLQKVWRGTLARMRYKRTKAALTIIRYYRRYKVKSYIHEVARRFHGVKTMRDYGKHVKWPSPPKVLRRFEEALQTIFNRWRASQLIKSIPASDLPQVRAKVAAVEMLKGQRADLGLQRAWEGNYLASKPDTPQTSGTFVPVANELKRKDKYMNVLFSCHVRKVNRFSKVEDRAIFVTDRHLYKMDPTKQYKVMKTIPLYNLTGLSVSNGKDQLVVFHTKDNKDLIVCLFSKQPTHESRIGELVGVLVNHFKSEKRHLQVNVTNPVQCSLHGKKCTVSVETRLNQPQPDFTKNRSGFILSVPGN
UniProt P26038, whole entry, looked up: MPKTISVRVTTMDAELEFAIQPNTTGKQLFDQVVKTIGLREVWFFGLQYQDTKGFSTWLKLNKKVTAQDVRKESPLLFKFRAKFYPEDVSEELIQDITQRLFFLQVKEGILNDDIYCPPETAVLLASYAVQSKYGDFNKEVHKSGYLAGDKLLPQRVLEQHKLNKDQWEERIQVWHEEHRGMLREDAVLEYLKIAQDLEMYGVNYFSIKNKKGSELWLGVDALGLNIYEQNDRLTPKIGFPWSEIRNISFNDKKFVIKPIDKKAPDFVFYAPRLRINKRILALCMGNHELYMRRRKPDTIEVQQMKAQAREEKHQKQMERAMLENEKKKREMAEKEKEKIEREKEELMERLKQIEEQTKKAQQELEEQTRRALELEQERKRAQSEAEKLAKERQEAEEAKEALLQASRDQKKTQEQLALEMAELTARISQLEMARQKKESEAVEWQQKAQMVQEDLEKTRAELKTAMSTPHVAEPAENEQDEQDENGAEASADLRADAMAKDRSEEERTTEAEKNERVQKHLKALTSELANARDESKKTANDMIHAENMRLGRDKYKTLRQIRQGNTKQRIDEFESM
UniProt Q96E11: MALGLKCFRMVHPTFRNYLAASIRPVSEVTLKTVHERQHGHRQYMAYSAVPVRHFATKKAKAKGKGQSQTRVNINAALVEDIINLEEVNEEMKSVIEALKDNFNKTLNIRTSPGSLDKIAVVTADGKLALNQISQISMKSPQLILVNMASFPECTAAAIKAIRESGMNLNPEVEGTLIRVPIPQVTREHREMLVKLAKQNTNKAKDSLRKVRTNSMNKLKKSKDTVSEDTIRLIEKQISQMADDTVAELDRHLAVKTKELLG
UniProt Q6P444: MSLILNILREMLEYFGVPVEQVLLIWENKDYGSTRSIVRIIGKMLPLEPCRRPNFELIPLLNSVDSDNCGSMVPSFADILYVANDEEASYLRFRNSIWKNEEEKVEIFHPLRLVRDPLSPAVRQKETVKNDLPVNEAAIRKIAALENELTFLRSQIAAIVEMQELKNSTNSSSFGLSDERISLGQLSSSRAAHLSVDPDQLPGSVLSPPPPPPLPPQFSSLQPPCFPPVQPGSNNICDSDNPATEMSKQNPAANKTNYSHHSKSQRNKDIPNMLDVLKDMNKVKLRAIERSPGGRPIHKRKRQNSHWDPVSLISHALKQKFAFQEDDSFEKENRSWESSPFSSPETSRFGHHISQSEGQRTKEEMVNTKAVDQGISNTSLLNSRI
UniProt P42285: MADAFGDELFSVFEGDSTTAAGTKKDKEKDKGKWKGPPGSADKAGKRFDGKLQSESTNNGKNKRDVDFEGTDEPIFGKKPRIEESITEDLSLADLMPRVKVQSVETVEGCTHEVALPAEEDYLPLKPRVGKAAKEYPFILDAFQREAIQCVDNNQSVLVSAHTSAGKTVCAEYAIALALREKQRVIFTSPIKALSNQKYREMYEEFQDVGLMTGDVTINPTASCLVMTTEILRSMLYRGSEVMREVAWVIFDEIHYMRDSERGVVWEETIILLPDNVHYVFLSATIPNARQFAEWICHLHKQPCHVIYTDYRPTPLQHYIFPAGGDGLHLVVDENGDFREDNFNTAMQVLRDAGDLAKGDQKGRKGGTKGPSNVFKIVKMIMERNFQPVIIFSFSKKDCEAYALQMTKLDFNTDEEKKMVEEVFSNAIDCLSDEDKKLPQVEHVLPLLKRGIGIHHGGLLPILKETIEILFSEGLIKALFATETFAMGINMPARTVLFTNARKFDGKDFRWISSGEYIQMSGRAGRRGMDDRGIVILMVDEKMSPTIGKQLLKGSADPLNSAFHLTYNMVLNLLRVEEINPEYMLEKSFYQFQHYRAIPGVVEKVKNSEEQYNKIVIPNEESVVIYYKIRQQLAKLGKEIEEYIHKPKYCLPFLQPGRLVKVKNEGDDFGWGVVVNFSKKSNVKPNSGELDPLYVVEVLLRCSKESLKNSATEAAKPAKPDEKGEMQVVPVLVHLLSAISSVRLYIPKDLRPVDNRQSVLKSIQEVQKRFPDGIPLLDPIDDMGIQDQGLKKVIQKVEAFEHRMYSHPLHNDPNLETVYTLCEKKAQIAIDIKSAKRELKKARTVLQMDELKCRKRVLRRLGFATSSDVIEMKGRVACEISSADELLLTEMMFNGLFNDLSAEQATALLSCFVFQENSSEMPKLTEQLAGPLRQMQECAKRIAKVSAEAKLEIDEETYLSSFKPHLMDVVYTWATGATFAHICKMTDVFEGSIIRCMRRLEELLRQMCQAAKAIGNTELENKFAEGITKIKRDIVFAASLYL

Columns and labels:
Experiment in all cases: log2 fold change, soluble protein after heating vs DMSO (PISA); higher = thermal stabilisation; K562 cells, 10 uM, 30 min; active = over 0.2 and 3.5 SD of the protein, either way, in both replicates (recomputed)
erlotinib = compound: C#Cc1cccc(Nc2ncnc3cc(OCCOC)c(OCCOC)cc23)c1 [erlotinib]
Method in brief: (§1)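 Thermal stability values are relative to control samples and come from duplicates. They are expressed as log2 fold changes. For measurement, K562 cells (2×10^6 cells/mL) received 10 μM compound for 30 min, and aliquots were heated for 3 min over 48°C-58°C, pooled, and extracted at 4°C in PBS with 0.5% NP-40. Soluble protein, the supernatant after 21,000xg for 90 min, was quantified by TMTpro 16plex LC-MS/MS with equalised channel sums.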

[1] = compound: C/C(=N\NC(=O)C1=CC(=CC=C1)S(=O)(=O)N2CCOCC2)/C3=C(C=CC(=C3)Cl)O
Method in brief: as §1

[2] = compound: C1=CC(=C(C=C1Cl)C2=NC3=NC=CN=C3C(=N2)NC4=CC=NC=C4)F
Method in brief: as §1

[3] = compound: C1=CC(=CC=C1C2=NC3=C(N2)C=C(C=C3)C(=O)N)OC4=CC=C(C=C4)Cl
Method in brief: as §1

[4] = compound: C1=CC2=C(C=CC(=C2)/C=C\3/C(=O)NC(=NCC4=CC=CS4)S3)N=C1
Method in brief: as §1

[5] = compound: C1=CC2=NC=CN=C2C=C1/C=C/3\C(=O)NC(=O)S3
Method in brief: as §1

[6] = compound: C1=CC=C(C=C1)C2=NC(=C(N2)C3=CC=NC=C3)C4=CC(=C(C=C4)Cl)O
Method in brief: as §1

[7] = compound: C1=CC=C2C(=C1)C3=NNC4=CC=CC(=C43)C2=O
Method in brief: as §1

[8] = compound: C1CCN(C1)C(=O)NC2=CC=CC(=C2)NC3=NC=C(C(=N3)NCCC4=CN=CN4)Br
Method in brief: as §1

[9] = compound: C1CN(CCC1(CC2=CC=C(C=C2)Cl)N)C3=NC=NC4=C3C=CN4
Method in brief: as §1

IRAK-1-4 Inhibitor I = compound: C1COCCN1CCN2C3=CC=CC=C3N=C2NC(=O)C4=CC(=CC=C4)[N+](=O)[O-] [IRAK-1-4 Inhibitor I]
Method in brief: as §1

ibrutinib = compound: C=CC(=O)N1CCC[C@@H](n2nc(-c3ccc(Oc4ccccc4)cc3)c3c(N)ncnc32)C1 [ibrutinib]
Method in brief: as §1

[10] = compound: CC(=O)c1cnc2ccc(-c3cc(Cl)c(O)c(Cl)c3)nc2c1N[C@H]1CC[C@H](CN(C)C)CC1
Method in brief: as §1

ralimetinib = compound: CC(C)(C)Cn1c(N)nc2ccc(-c3[nH]c(C(C)(C)C)nc3-c3ccc(F)cc3)nc21 [ralimetinib]
Method in brief: as §1

[11] = compound: CC(C)(O)CC(=O)NCCn1ccc2ncnc(Nc3ccc(Oc4cccc(C(F)(F)F)c4)c(Cl)c3)c21
Method in brief: as §1

[12] = compound: CC(C)C1=C2N=C(C=C(N2N=C1)NCC3=CC=CC=C3)NCCCCCCN
Method in brief: as §1

[13] = compound: CC(C)C[C@@H](C=O)NC(=O)[C@H](CC(C)C)NC(=O)[C@H](CC(C)C)NC(=O)OCc1ccccc1
Method in brief: as §1

pinometostat = compound: CC(C)N(C[C@H]1O[C@@H](n2cnc3c(N)ncnc32)[C@H](O)[C@@H]1O)[C@H]1C[C@@H](CCc2nc3cc(C(C)(C)C)ccc3[nH]2)C1 [pinometostat]
Method in brief: as §1

[14] = compound: CC1=C(C(CC(=O)N1)C2=CC=C(C=C2)C(F)(F)F)C(=O)NC3=C(C=C4C(=C3)C=NN4)F
Method in brief: as §1

[15] = compound: CC1=C(C2=C(C=C1)C(=O)C3=CC=CC=C3N2CCCN)C
Method in brief: as §1

Row | Target | log2 fold change (erlotinib) | log2 fold change [1] | log2 fold change [2] | log2 fold change [3] | log2 fold change [4] | log2 fold change [5] | log2 fold change [6] | log2 fold change [7] | log2 fold change [8] | log2 fold change [9] | log2 fold change (IRAK-1-4 Inhibitor I) | log2 fold change (ibrutinib) | log2 fold change [10] | log2 fold change (ralimetinib) | log2 fold change [11] | log2 fold change [12] | log2 fold change [13] | log2 fold change (pinometostat) | log2 fold change [14] | log2 fold change [15]
1 | MYO18A (UniProt Q92614) | inactive: 0.081 | inactive: 0.07 | inactive: -0.162 | inactive: 0.073 | inactive: 0.056 | inactive: -0.103 | inactive: -0.012 | inactive: -0.13 | inactive: 0.055 | inactive: 0.061 | inactive: 0.014 | inactive: 0.1 | inactive: -0.177 | inactive: 0.096 | inactive: 0.066 | inactive: -0.066 | inactive: 0.123 | inactive: 0.1 | inactive: 0.034 | inactive: -0.041
2 | MTG1 (UniProt Q9BT17) | inactive: 0.025 | inactive: 0.024 | inactive: -0.103 | inactive: 0.041 | inactive: -0.05 | inactive: -0.044 | inactive: 0.136 | inactive: 0.05 | inactive: -0.037 | inactive: -0.077 | inactive: 0.078 | inactive: -0.019 | inactive: -0.091 | inactive: -0.057 | inactive: 0.26 | inactive: 0.065 | inactive: 0.047 | inactive: 0.029 | inactive: 0.067 | inactive: 0
3 | MSI1 (UniProt O43347) | inactive: -0.044 | inactive: -0.017 | inactive: -0.048 | inactive: 0.217 | inactive: 0.103 | inactive: 0.114 | inactive: -0.01 | inactive: 0.079 | inactive: 0.069 | inactive: -0.048 | inactive: -0.043 | inactive: 0.036 | inactive: -0.027 | inactive: 0.121 | inactive: -0.01 | inactive: 0.102 | inactive: -0.028 | inactive: 0.107 | inactive: 0.035 | inactive: -0.072
4 | MYO1D (UniProt O94832) | inactive: 0.037 | inactive: -0.006 | inactive: -0.216 | inactive: 0.013 | inactive: 0.084 | inactive: -0.051 | inactive: 0.094 | inactive: 0.018 | inactive: -0.08 | inactive: -0.05 | inactive: 0.034 | inactive: 0.09 | inactive: 0.006 | inactive: 0.169 | inactive: 0 | inactive: -0.192 | inactive: 0.161 | inactive: 0.206 | inactive: -0.029 | inactive: -0.153
5 | MRPS18B (UniProt Q9Y676) | inactive: 0.026 | inactive: 0.101 | inactive: -0.051 | inactive: 0.124 | inactive: 0.03 | inactive: 0.034 | inactive: 0.027 | inactive: 0.119 | inactive: 0.079 | inactive: -0.119 | inactive: -0.026 | inactive: 0.103 | inactive: -0.096 | inactive: -0.022 | inactive: -0.025 | inactive: -0.043 | inactive: 0.137 | inactive: -0.005 |  | inactive: -0.068
6 | MRPS34 (UniProt P82930) | inactive: -0.06 | inactive: 0.062 | inactive: -0.071 | inactive: 0.092 | inactive: -0.013 | inactive: -0.065 | inactive: 0.001 | inactive: 0.036 | inactive: 0.056 | inactive: -0.129 | inactive: -0.141 | inactive: -0.007 | inactive: -0.024 | inactive: -0.033 | inactive: -0.091 | inactive: -0.129 | inactive: -0.022 | inactive: 0.046 | inactive: -0.07 | inactive: -0.041
7 | MSN (UniProt P26038) | inactive: 0.003 | inactive: 0.032 | inactive: 0.063 | inactive: -0.008 | inactive: -0.022 | inactive: 0.025 | inactive: -0.005 | inactive: 0.036 | inactive: -0.004 | inactive: -0.023 | inactive: -0.005 | inactive: -0.022 | inactive: 0.055 | inactive: -0.004 | inactive: 0.034 | inactive: 0.049 | inactive: -0.01 | inactive: -0.053 | inactive: -0.061 | inactive: 0.015
8 | MVB12A (UniProt Q96EY5) | inactive: -0.06 | inactive: 0.082 | inactive: 0.071 | inactive: -0.004 | inactive: 0.091 | inactive: -0.061 | inactive: -0.025 | inactive: 0.105 | inactive: 0.047 | inactive: -0.005 | inactive: -0.014 | inactive: 0.039 | inactive: -0.244 | inactive: -0.065 | inactive: -0.229 | inactive: -0.127 | inactive: 0.037 | inactive: 0.061 | inactive: 0.058 | inactive: 0.099
9 | MRPL58 (UniProt Q14197) | inactive: -0.056 | inactive: -0.074 | inactive: -0.115 | inactive: 0.04 | inactive: -0.052 | inactive: -0.048 | inactive: -0.048 | inactive: 0.066 | inactive: -0.014 | inactive: -0.179 | inactive: -0.093 | inactive: 0.01 | inactive: 0.098 | inactive: 0.025 | inactive: 0.008 | inactive: 0.022 | inactive: 0.075 | inactive: 0.072 | inactive: 0.024 | inactive: -0.035
10 | MRRF (UniProt Q96E11) | inactive: -0.022 | inactive: 0.041 | inactive: 0.056 | inactive: 0.008 | inactive: -0.012 | inactive: 0.024 | inactive: 0.013 | inactive: 0.017 | inactive: -0.011 | inactive: -0.006 | inactive: -0.008 | inactive: -0.044 | inactive: -0.084 | inactive: -0.006 | inactive: -0.065 | inactive: 0.037 | inactive: -0.013 | inactive: -0.027 | inactive: -0.032 | inactive: -0.014
11 | MTFR2 (UniProt Q6P444) | inactive: 0.132 | inactive: -0.01 | inactive: -0.034 | inactive: -0.049 | inactive: -0.114 | inactive: 0.087 | inactive: 0.012 | inactive: -0.11 | inactive: 0.036 | inactive: -0.042 | inactive: 0.018 | inactive: 0.012 | inactive: -0.076 | inactive: 0.024 | inactive: -0.137 | inactive: -0.048 | inactive: 0.035 | inactive: -0.046 | inactive: 0.064 | inactive: -0.055
12 | MTREX (UniProt P42285) | inactive: -0.015 | inactive: 0.045 | inactive: 0.035 | inactive: 0.023 | inactive: -0.001 | inactive: 0.027 | inactive: 0.007 | inactive: 0.018 | inactive: 0.011 | inactive: 0 | inactive: 0.016 | inactive: -0.03 | inactive: -0.016 | inactive: -0.04 | inactive: -0.026 | inactive: -0.044 | inactive: 0.008 | inactive: -0.013 | inactive: -0.024 | inactive: 0.073
13 | MRPS5 (UniProt P82675) | inactive: -0.077 | inactive: 0.038 | inactive: 0.009 | inactive: 0.193 | inactive: 0.007 | inactive: -0.008 | inactive: 0.027 | inactive: 0.158 | inactive: -0.035 | inactive: -0.085 | inactive: -0.071 | inactive: 0.057 | inactive: -0.019 | inactive: 0 | inactive: -0.088 | inactive: -0.083 | inactive: 0.078 | inactive: 0.056 |  | inactive: -0.207
14 | MSH3 (UniProt P20585) | inactive: 0.009 | inactive: 0.031 | inactive: 0.068 | inactive: 0.017 | inactive: 0.017 | inactive: 0.03 | inactive: 0.004 | inactive: -0.039 | inactive: 0.008 | inactive: -0.045 | inactive: -0.001 | inactive: -0.002 | inactive: 0.054 | inactive: -0.053 | inactive: 0.01 | inactive: 0.068 | inactive: 0.056 | inactive: 0.043 |  | active: 0.27
15 | MYO6 isoform 6 (UniProt Q9UM54) | inactive: -0.044 | inactive: 0.005 | inactive: 0.067 | inactive: 0.01 | inactive: 0.009 | inactive: 0.01 | inactive: -0.002 | inactive: -0.034 | inactive: 0.032 | inactive: 0.061 | inactive: 0.03 | inactive: 0.029 | inactive: 0.021 | inactive: -0.006 | inactive: -0.015 | inactive: 0.076 | inactive: -0.038 | inactive: -0.006 | inactive: -0.016 | inactive: 0.088
16 | MRPS35 (UniProt P82673) | inactive: -0.068 | inactive: -0.028 | inactive: -0.048 | inactive: 0.14 | inactive: 0.003 | inactive: -0.043 | inactive: 0.022 | inactive: 0.096 | inactive: 0.042 | inactive: -0.08 | inactive: -0.035 | inactive: 0.004 | inactive: -0.082 | inactive: -0.035 | inactive: -0.047 | inactive: -0.024 | inactive: 0.083 | inactive: 0.078 |  | inactive: -0.186

Quoted at random: 2 records from the list, in no set order.
Row | Target | log2 fold change (erlotinib) | log2 fold change [1] | log2 fold change [2] | log2 fold change [3] | log2 fold change [4] | log2 fold change [5] | log2 fold change [6] | log2 fold change [7] | log2 fold change [8] | log2 fold change [9] | log2 fold change (IRAK-1-4 Inhibitor I) | log2 fold change (ibrutinib) | log2 fold change [10] | log2 fold change (ralimetinib) | log2 fold change [11] | log2 fold change [12] | log2 fold change [13] | log2 fold change (pinometostat) | log2 fold change [14] | log2 fold change [15]
3 | MSI1 (UniProt O43347) | inactive: -0.044 | inactive: -0.017 | inactive: -0.048 | inactive: 0.217 | inactive: 0.103 | inactive: 0.114 | inactive: -0.01 | inactive: 0.079 | inactive: 0.069 | inactive: -0.048 | inactive: -0.043 | inactive: 0.036 | inactive: -0.027 | inactive: 0.121 | inactive: -0.01 | inactive: 0.102 | inactive: -0.028 | inactive: 0.107 | inactive: 0.035 | inactive: -0.072
8 | MVB12A (UniProt Q96EY5) | inactive: -0.06 | inactive: 0.082 | inactive: 0.071 | inactive: -0.004 | inactive: 0.091 | inactive: -0.061 | inactive: -0.025 | inactive: 0.105 | inactive: 0.047 | inactive: -0.005 | inactive: -0.014 | inactive: 0.039 | inactive: -0.244 | inactive: -0.065 | inactive: -0.229 | inactive: -0.127 | inactive: 0.037 | inactive: 0.061 | inactive: 0.058 | inactive: 0.099
